PubChem BioAssay AID493246, Drosophila RNAi Screening Center, 2011
The deposit covers about 21,000 reagents; this is an unselected part of those that have a named target and a result. Over the whole deposit, 429 (2%) got an active call. 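Values are raw and not normalised between plates; calls rest on per-plate z-scores that were not deposited.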 Not given: the amount of reagent, the time to read-out.

Screen: 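Genes fly cells need to grow and stay alive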 (primary screen)
Cells: Drosophila Kc and S2R+ cells
Knock-down reagent: long dsRNA against Drosophila genes
Measurement: 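Raw, unnormalised count of remaining cells in each well; per-plate z-scores of cell number underlie the calls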
Reading the numbers: Kc cell number and S2R+ cell number: higher = more cells remaining
Call rule: 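Counted as a hit if cell number falls by a z-score of at least 3 within its plate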

target,dsRNA,"Kc cell number, rep 1","Kc cell number, rep 2","S2R+ cell number, rep 1","S2R+ cell number, rep 2",Call
Cog8 (Component of oligomeric golgi complex 8),DRSC02961,1.39e6,1.47e6,1.14e6,1.21e6,inactive
CG7191,DRSC03022,1.61e6,1.68e6,1.21e6,1.41e6,inactive
CG32606 (retired record),DRSC19001,2.50e5,2.75e5,4.17e5,5.50e5,active
CG32606 (retired record),DRSC19371,1.54e6,1.52e6,1.06e6,1.12e6,inactive
CG32606 (retired record),DRSC19372,1.50e6,1.38e6,1.01e6,1.13e6,inactive
CG32606 (retired record),DRSC19373,1.54e6,1.52e6,9.94e5,1.09e6,inactive
CG31639,DRSC00910,1.49e6,1.52e6,1.05e6,1.13e6,inactive
Hk (Hyperkinetic),DRSC17638,1.13e6,1.21e6,8.49e5,8.70e5,inactive
Hk (Hyperkinetic),DRSC18674,1.55e6,1.52e6,9.31e5,1.03e6,inactive
Ndc1 (Nuclear division cycle 1),DRSC15895,1.40e6,1.52e6,1.21e6,1.35e6,inactive
obst-F (obstructor-F),DRSC10805,1.49e6,1.57e6,1.19e6,1.38e6,inactive
Pdfr (Pigment-dispersing factor receptor),DRSC18614,1.40e6,1.36e6,9.12e5,9.61e5,inactive
CG5412,DRSC15796,1.46e6,1.56e6,1.23e6,1.26e6,inactive
CG14107,DRSC10110,1.67e6,1.60e6,1.20e6,1.26e6,inactive
RSG7 (Regulator of G-protein signaling 7),DRSC20274,1.59e6,1.59e6,1.15e6,1.21e6,inactive
mRpL35 (mitochondrial ribosomal protein L35),DRSC14586,1.14e6,1.21e6,8.95e5,9.72e5,inactive
CG13299,DRSC09973,1.25e6,1.18e6,1.12e6,1.20e6,inactive
CG7546,DRSC08885,1.47e6,1.54e6,1.16e6,1.33e6,inactive
CG7546,DRSC10871,1.24e6,1.32e6,1.00e6,1.14e6,inactive
CG31091,DRSC15933,1.40e6,1.47e6,1.01e6,1.05e6,inactive

A few values from the entries so far.
For “Kc cell number, rep 1”, CG32606 (retired record) [DRSC19001] shows 2.50e5
Entry for CG7191 [DRSC03022] in “S2R+ cell number, rep 1”: 1.21e6
mRpL35 (mitochondrial ribosomal protein L35) [DRSC14586], Kc cell number, rep 2 = 1.21e6
RSG7 (Regulator of G-protein signaling 7) [DRSC20274], S2R+ cell number, rep 2 = 1.21e6
Under “Call”, CG14107 [DRSC10110] shows inactive
Entry for CG31091 [DRSC15933] in “S2R+ cell number, rep 2”: 1.05e6

Next entries follow:
target,dsRNA,"Kc cell number, rep 1","Kc cell number, rep 2","S2R+ cell number, rep 1","S2R+ cell number, rep 2",Call
robl (roadblock),DRSC07674,1.51e6,1.55e6,1.09e6,1.20e6,inactive
RpS5b (Ribosomal protein S5b),DRSC16173,1.36e6,1.48e6,1.09e6,1.18e6,inactive
Ythdf (YTH N6-methyladenosine RNA binding protein),DRSC16036,1.46e6,1.47e6,1.02e6,1.04e6,inactive
Ythdf (YTH N6-methyladenosine RNA binding protein),DRSC16037,1.46e6,1.52e6,9.62e5,1.05e6,inactive
AIMP2 (aaRS-interacting multifunctional protein 2),DRSC09877,1.59e6,1.61e6,1.40e6,1.51e6,inactive
beat-IIa (beaten path IIa),DRSC14813,1.24e6,1.28e6,1.12e6,1.30e6,inactive
beat-IIa (beaten path IIa),DRSC14814,1.27e6,1.46e6,1.09e6,1.24e6,inactive
zormin,DRSC07969,1.61e6,1.49e6,1.04e6,1.18e6,inactive
zormin,DRSC08210,1.44e6,1.28e6,9.12e5,1.19e6,inactive
zormin,DRSC08212,1.39e6,1.26e6,1.01e6,1.20e6,inactive
zormin,DRSC08213,1.32e6,1.36e6,9.94e5,1.18e6,inactive
zormin,DRSC08297,1.52e6,1.19e6,1.00e6,1.18e6,inactive
zormin,DRSC08571,1.43e6,1.49e6,1.01e6,1.06e6,inactive
cv-2 (crossveinless 2),DRSC03861,6.16e5,,8.99e5,,inactive
cv-2 (crossveinless 2),DRSC04261,1.63e6,1.66e6,1.27e6,2.91e5,inactive
CG14013,DRSC02344,1.51e6,1.23e6,9.50e5,1.02e6,inactive
CG3505,DRSC15489,1.45e6,1.51e6,1.23e6,1.31e6,inactive
RnrL (Ribonucleoside diphosphate reductase large subunit),DRSC03413,1.18e6,1.20e6,8.09e5,9.86e5,inactive
CG32523,DRSC20510,1.55e6,1.54e6,1.14e6,1.27e6,inactive
kermit,DRSC06074,1.34e6,1.42e6,1.07e6,1.12e6,inactive
inaF-C,DRSC18902,1.27e6,1.51e6,1.09e6,1.08e6,inactive
CG15824,DRSC00473,1.56e6,1.56e6,1.10e6,1.24e6,inactive
CG30158,DRSC04956,1.31e6,1.51e6,1.01e6,1.13e6,inactive
CG30158,DRSC04974,1.50e6,1.54e6,1.20e6,1.36e6,inactive
CG30158,DRSC04975,1.53e6,1.59e6,1.23e6,1.36e6,inactive
CG30158,DRSC05012,1.57e6,1.65e6,1.24e6,1.35e6,inactive
twr (twisted bristles roughened eye),DRSC12491,1.38e6,1.49e6,1.16e6,1.27e6,inactive
oys (oysgedart),DRSC05203,1.46e6,1.57e6,7.70e5,9.23e5,inactive
oys (oysgedart),DRSC06751,1.27e6,1.32e6,1.10e6,1.19e6,inactive
CG13653,DRSC14653,1.47e6,1.46e6,1.01e6,1.12e6,inactive
CG13699,DRSC10048,1.49e6,1.68e6,1.26e6,1.36e6,inactive
CG4955,DRSC19927,1.57e6,1.62e6,1.10e6,1.18e6,inactive
Vta1 (Vesicle trafficking 1),DRSC08604,1.57e6,1.68e6,1.07e6,1.18e6,inactive
CG30127 (retired record),DRSC05785,5.11e5,,8.21e5,,inactive
CG30127 (retired record),DRSC05786,6.13e5,,8.59e5,,inactive
CG33673,DRSC00084,1.64e6,1.66e6,1.12e6,1.28e6,inactive
uex (unextended),DRSC20784,1.22e6,1.38e6,1.19e6,1.23e6,inactive
uex (unextended),DRSC20786,1.23e6,1.51e6,1.17e6,1.19e6,inactive
Eip93F (Ecdysone-induced protein 93F),DRSC13527,1.69e6,1.53e6,1.06e6,1.02e6,inactive
Eip93F (Ecdysone-induced protein 93F),DRSC16661,1.32e6,1.42e6,8.86e5,9.53e5,inactive
